Results: publication PMC9468337
Results are given in words; binding and its absence hold for the method and conditions named. In cells and extracts the contact can be indirect. Binding calls can cover weak binding; strength is not graded here. Each block holds one molecule with its values, some of them ahead of it.

Protein sequences, listed by entry. Tags and fused reporters are not part of them. Lines headed by an entry give the natural chain unless they say otherwise; changes in a name come on top.
UniProt Q14703: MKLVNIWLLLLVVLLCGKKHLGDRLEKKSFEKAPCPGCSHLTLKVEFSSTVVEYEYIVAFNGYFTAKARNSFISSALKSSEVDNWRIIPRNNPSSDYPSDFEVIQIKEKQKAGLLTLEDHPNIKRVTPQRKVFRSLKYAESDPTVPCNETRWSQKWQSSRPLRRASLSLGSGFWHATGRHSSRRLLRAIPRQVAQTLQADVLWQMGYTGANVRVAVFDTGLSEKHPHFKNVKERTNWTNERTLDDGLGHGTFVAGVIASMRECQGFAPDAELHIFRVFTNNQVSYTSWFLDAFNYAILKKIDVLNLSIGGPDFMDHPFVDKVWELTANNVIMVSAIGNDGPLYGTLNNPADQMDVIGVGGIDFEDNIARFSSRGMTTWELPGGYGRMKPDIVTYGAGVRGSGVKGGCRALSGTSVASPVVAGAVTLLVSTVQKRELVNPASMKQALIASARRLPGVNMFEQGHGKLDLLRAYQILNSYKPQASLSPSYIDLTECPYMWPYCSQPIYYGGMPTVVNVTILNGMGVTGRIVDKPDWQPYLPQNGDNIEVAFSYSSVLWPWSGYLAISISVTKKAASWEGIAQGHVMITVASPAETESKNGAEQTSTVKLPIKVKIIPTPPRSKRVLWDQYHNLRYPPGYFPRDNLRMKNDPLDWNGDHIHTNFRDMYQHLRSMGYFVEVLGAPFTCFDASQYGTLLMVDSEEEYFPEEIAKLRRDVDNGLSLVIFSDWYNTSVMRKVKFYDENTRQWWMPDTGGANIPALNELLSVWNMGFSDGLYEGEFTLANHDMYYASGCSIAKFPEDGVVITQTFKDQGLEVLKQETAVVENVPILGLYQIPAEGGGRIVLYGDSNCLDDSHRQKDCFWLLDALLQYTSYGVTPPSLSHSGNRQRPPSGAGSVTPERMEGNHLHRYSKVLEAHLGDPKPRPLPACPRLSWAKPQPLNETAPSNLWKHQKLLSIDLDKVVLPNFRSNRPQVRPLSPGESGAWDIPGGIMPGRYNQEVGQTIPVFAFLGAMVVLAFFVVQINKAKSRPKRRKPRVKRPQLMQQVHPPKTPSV

Legend:
[1] = target: T1, TMEM251 (GNPTAB cleavage and activity factor), short isoform (human) (UniProt Q8N6I4); test: co-IP; reciprocal IP 48 h after transfection; lysis in 20 mM Tris pH 8.0, 150 mM NaCl, 1% Triton; anti-FLAG M2, anti-V5 or anti-HA beads at 4 °C; washed 4 times with lysis buffer; western blot
T1 sequence: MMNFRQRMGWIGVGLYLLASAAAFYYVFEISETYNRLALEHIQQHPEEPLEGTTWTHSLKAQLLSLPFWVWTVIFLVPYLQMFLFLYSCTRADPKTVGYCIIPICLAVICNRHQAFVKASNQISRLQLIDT

[2] = target: site-1 protease S1P (S414A) (UniProt Q14703); test: as above

binding [1]: binds
Molecule: site-1 protease S1P (S414A) (from UniProt Q14703) (enzyme)

binding [2]: binds
B1: TMEM251 (GNPTAB cleavage and activity factor), short isoform (protein, UniProt Q8N6I4-2 1-131)
chain: T1 sequence
